Experimental data as given in paper PMC7617797, “The phosphorylated trimeric SOSS1 complex and RNA polymerase II trigger liquid-liquid phase separation at double-strand breaks”.
No constants are given. Whether binding was seen depends on the method and setting. Binding seen in cells or lysates may run through a third protein. Some results given as binding are weak or reduced against the parent protein; the word gives no strength.

By UniProt entry, the sequences of proteins in these tests, tags left out. Where a name states a change or a piece, a line headed by the entry shows the natural chain unless it says otherwise. Chains listed by the source or under a name are the forms on record and can include a tag or linker.
UniProt Q9BQ15: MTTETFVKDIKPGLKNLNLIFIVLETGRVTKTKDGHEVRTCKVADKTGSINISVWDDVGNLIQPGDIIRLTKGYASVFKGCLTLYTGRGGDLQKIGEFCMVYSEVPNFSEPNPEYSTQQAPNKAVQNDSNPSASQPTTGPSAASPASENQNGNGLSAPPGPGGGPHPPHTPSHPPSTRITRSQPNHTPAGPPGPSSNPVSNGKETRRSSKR
phosphorylated c-Abl (p-c-Abl) (P00519-2, form named): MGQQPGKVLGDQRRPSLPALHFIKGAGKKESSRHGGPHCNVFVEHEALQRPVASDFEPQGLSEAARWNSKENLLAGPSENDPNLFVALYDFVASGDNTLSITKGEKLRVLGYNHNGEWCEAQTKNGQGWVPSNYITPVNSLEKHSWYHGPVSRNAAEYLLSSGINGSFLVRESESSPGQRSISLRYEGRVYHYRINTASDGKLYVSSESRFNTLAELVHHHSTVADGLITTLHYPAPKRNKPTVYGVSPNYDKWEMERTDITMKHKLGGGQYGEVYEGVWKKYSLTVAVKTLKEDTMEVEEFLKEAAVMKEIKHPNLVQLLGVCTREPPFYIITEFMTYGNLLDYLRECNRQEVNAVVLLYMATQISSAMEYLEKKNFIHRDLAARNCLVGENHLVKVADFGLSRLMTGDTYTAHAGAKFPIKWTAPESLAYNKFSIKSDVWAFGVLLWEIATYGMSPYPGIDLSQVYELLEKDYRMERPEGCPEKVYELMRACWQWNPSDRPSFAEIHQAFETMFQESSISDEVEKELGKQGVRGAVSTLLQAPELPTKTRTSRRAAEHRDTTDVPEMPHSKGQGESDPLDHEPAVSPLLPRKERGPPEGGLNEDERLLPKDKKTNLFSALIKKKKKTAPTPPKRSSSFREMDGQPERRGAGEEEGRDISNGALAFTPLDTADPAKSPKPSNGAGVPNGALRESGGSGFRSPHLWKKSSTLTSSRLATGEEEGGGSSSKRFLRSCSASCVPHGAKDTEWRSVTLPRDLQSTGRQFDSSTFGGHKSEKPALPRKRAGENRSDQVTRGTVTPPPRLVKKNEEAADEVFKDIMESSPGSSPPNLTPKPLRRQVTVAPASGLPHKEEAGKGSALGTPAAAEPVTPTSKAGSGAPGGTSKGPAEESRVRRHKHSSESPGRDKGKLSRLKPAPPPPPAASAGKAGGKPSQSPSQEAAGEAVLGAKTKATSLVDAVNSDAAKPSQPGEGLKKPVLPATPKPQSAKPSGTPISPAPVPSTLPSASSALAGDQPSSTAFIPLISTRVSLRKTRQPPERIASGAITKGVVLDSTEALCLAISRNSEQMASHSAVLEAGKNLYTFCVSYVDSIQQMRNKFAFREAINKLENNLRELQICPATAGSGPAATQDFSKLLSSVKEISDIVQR

Biological target: human SSB1 (hSSB1) (human (endogenous in HeLa)) (UniProt Q9BQ15)
Assay: proximity ligation; Duolink in situ PLA with antibodies to the two endogenous proteins in fixed, permeabilised HeLa cells; with or without IR (10 Gy), imatinib (1 μM) or RNase H1 overexpression; single antibodies as negative control

Abelson tyrosine kinase (c-Abl) (from UniProt P00519-2 1-1149) (enzyme)
binding: binds

phosphorylated c-Abl (p-c-Abl) (from UniProt P00519-2 1-1149) (enzyme)
binding: binds
